These results are taken from publication PMC7053324.

Protein sequences, listed by entry. Tags and fused reporters are not part of them. Residues count along the entry.
UniProt P30530, 26-894: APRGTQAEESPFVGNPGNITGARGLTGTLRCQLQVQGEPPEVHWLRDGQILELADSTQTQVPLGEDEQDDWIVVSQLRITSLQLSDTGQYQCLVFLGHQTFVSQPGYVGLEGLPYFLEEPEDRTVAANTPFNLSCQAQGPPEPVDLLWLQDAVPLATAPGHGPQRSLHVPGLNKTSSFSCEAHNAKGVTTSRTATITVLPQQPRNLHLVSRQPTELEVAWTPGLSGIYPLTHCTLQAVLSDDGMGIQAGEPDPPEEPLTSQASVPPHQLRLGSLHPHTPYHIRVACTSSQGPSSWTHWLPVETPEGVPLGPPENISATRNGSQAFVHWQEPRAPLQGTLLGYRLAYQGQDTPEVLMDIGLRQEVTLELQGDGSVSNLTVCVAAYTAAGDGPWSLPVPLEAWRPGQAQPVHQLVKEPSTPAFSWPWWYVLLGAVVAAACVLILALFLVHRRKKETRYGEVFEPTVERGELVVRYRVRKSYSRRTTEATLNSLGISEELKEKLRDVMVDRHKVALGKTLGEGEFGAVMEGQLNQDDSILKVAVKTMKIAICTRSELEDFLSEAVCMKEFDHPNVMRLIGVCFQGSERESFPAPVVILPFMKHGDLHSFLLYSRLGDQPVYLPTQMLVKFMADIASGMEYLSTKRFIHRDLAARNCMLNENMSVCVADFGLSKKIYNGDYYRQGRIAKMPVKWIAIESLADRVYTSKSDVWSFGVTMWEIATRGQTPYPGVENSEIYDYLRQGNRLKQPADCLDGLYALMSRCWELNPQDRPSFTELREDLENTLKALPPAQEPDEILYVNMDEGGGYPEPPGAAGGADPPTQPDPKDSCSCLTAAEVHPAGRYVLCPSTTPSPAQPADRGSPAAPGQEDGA

The data set has as its target AXL receptor tyrosine kinase on A549 cells (UniProt P30530). The experiment in a line: cell binding, qRT-PCR of recovered RNA. The settings on record: 200 nM RNA, 30 min, 2'-F pyrimidines, Live A549 cells, 30 min at 37 C, 3 washes with ice-cold DPBS, TRIzol recovery, binding buffer/medium and pH not stated, protein on the cell surface.

The exact form of at least one protein or probe is not confirmed. Where cells or extracts were used, other partners may take part. At least one verdict was read from the data and is not stated in words by the source.

With “AUGAUCAAUCGCCUCAAUUCGACAGGAGGCUCACGUACAUUCUAGAUAGCC / AGGUGAAGUUCUGUUAUACACUCAGGCUGGCUAUCUAGAAUGUAC / AGUCAGUGCAUCACAGAACUUUGUCUUU”, under “normalized to CL4 reference and cell number, sticky 17-mers 2'-F-Py and 2'-OMe-Pu, XXXX = C3 carbon linkers between C34 and G35 of strand 1 (left out of the string)”, the binding result is “binds”.

For the sequence “AUGAUCAAUCGCCUCAAUUCGACAGGAGGCUCAC [GL21.T (AXL aptamer)]”, the binding result (comparison aptamer) was “binds”.
